The subject of this assay is L1210 leukemia ip in BDF1 mice, survival T/C. The experiment in a line: NCI In Vivo Anticancer Drug Screen. Data for tumor model L1210 Leukemia (intraperitoneal) in B6D2F1 (BDF1) mice. Particulars: T/C endpoint: mean survival time, higher T/C = longer survival.
Where [1] appears, read: dose: 100.0 mg/kg/injection, schedule: Q01DX001 (ip), vehicle: saline.
Where [2] appears, read: dose: 200.0 mg/kg/injection, schedule: Q01DX001 (ip), vehicle: saline.
Setting [3] is: dose: 400.0 mg/kg/injection, schedule: Q01DX001 (ip), vehicle: saline.
The mark [4] stands for this setting: dose: 100.0 mg/kg/injection, schedule: Q04DX003 (ip), vehicle: Klucel (hydroxypropylcellulose) (HPC).
Where [5] appears, read: dose: 400.0 mg/kg/injection, schedule: Q04DX003 (ip), vehicle: Klucel (hydroxypropylcellulose) (HPC).

This note sets out measurements from PubChem BioAssay AID248 (DTP/NCI, 2004).

The list is a part of this screen's results and no random one: it covers a few groups of compounds. Other doses and runs of a compound may be missing. T/C gives the treated animals as a percentage of the vehicle group. Some doses have a count of surviving animals in place of a T/C: the source holds a T/C of zero for them, seemingly a mark for toxic or unscored doses. Some survivor counts are full or nearly so, which does not show that the dose was tolerated: survival well below the control is almost never listed, so the zero probably covers shortened survival too. Survivors were counted at the toxicity check, usually on the fifth day, unless a day is given; later deaths do not show. Schedule codes are those of the source, taken here to give the interval after Q, in days (D) or hours (H), and the number of doses after X. Some schedules carry Z or #; the key to these is not given. Where survival is the endpoint, the PubChem record calls one and a half times the control and up active, and a quarter to a half above the control has no call in these data; cut-offs in other NCI protocols can differ. Some entries hold several experiments; their values stand side by side, smallest first. Some entries show no survivor count and are marked so; the dose need not have been tolerated. Some T/C values are followed by the survivors on the day toxicity was checked, most often the fifth; without a count or a note in brackets, all were alive then.

On to `COP(=O)(N(CCCl)CCCl)N1CC1` (stereo not drawn), for which the T/C is 111 % of control (dose: 4.0 mg/kg/injection, schedule: Q01DX Z (ip), vehicle: saline); 144 % of control (dose: 8.0 mg/kg/injection, schedule: Q01DX Z (ip), vehicle: saline); 114 % of control (dose: 16.0 mg/kg/injection, schedule: Q01DX Z (ip), vehicle: saline). In addition, the survivor count (dose: 32.0 mg/kg/injection, schedule: Q01DX Z (ip), vehicle: saline) is listed as 6 of 6; the survivor count (dose: 62.5 mg/kg/injection, schedule: Q01DX010 (ip), vehicle: saline) is on record as 2 of 6; the survivor count (dose: 64.0 mg/kg/injection, schedule: Q01DX Z (ip), vehicle: saline) is reported as 2 of 6; the survivor count (dose: 125.0 mg/kg/injection, schedule: Q01DX010 (ip), vehicle: saline) is 1 of 6; the survivor count (dose: 250.0 mg/kg/injection, schedule: Q01DX010 (ip), vehicle: saline) is reported as 0 of 6.

For `CCCCN.N#CN/C(N)=N/P(=O)(Oc1ccccc1)Oc1ccccc1`, the T/C runs as follows: (dose: 100.0 mg/kg/injection, schedule: Q04DX002 (ip), vehicle: saline with Tween-80) 96 % of control; (dose: 200.0 mg/kg/injection, schedule: Q04DX002 (ip), vehicle: saline with Tween-80) 92 % of control; (dose: 400.0 mg/kg/injection, schedule: Q04DX002 (ip), vehicle: saline with Tween-80) 96 % of control.

For `NC(=O)C(=O)NNC(=S)NP(=O)(Oc1ccccc1)Oc1ccccc1`, the T/C runs as follows: (dose: 100.0 mg/kg/injection, schedule: Q01DX009 (ip), vehicle: carboxymethylcellulose (CMC)) 101 % of control; (dose: 200.0 mg/kg/injection, schedule: Q01DX009 (ip), vehicle: carboxymethylcellulose (CMC)) 101 % of control; (dose: 400.0 mg/kg/injection, schedule: Q01DX009 (ip), vehicle: carboxymethylcellulose (CMC)) 91 % of control.

Regarding `F[As-](F)(F)(F)(F)F.c1ccc([As+](c2ccccc2)(c2ccccc2)c2ccccc2)cc1`, the T/C runs as follows: (dose: 100.0 mg/kg/injection, schedule: Q04DX002 (ip), vehicle: Klucel (hydroxypropylcellulose) (HPC)) 118 % of control; (dose: 200.0 mg/kg/injection, schedule: Q04DX002 (ip), vehicle: Klucel (hydroxypropylcellulose) (HPC)) 115 % of control; (dose: 400.0 mg/kg/injection, schedule: Q04DX002 (ip), vehicle: Klucel (hydroxypropylcellulose) (HPC)) 115 % of control.

As to `CC(C)([N+](=O)[O-])C(C)(C)[N+](=O)[O-]`, the T/C runs as follows: (dose: 5.0 mg/kg/injection, schedule: Q01DX001 (ip), vehicle: saline) 102 % of control; (dose: 10.0 mg/kg/injection, schedule: Q01DX001 (ip), vehicle: saline) 102 % of control; (dose: 20.0 mg/kg/injection, schedule: Q01DX001 (ip), vehicle: saline) 100 % of control; (dose: 40.0 mg/kg/injection, schedule: Q01DX001 (ip), vehicle: saline) 102 % of control. Moreover, the survivor count (dose: 80.0 mg/kg/injection, schedule: Q01DX001 (ip), vehicle: saline) is given as 0 of 4; the survivor count under setting [1] was 1 of 4; the survivor count under setting [2] was 0 of 4; the survivor count under setting [3] is listed as 0 of 4.

As to `O=[N+]([O-])c1cc([N+](=O)[O-])c(NNc2ccccc2)c([N+](=O)[O-])c1`, the T/C reads like this: (dose: 50.0 mg/kg/injection, schedule: Q01DX009 (ip), vehicle: Klucel (hydroxypropylcellulose) (HPC)) 113 % of control [survivor count not shown]; under setting [4], 103 % of control [survivor count not shown]; under setting [5], 103 % of control [survivor count not shown].

For `NC1CCCCC1.O=C(O)CCOP(=O)(O)N(CCCl)CCCl`, the T/C runs as follows: (dose: 12.5 mg/kg/injection, schedule: Q01DX001 (ip), vehicle: saline) 95 % of control; (dose: 25.0 mg/kg/injection, schedule: Q01DX001 (ip), vehicle: saline) 91 % of control; (dose: 50.0 mg/kg/injection, schedule: Q01DX001 (ip), vehicle: saline) 97 % of control; (dose: 88.0 mg/kg/injection, schedule: Q04DX003 (ip), vehicle: saline) 111 % of control; under setting [1], 111 % of control; (dose: 100.0 mg/kg/injection, schedule: Q01DX009 (ip), vehicle: saline) 103 % of control. The T/C reads like this: (dose: 100.0 mg/kg/injection, schedule: Q04DX003 (ip), vehicle: saline) 118 % of control; (dose: 133.0 mg/kg/injection, schedule: Q04DX003 (ip), vehicle: saline) 124 % of control; under setting [2], 100 % of control; (dose: 200.0 mg/kg/injection, schedule: Q01DX009 (ip), vehicle: saline) 137 % of control; (dose: 200.0 mg/kg/injection, schedule: Q04DX003 (ip), vehicle: saline) 122 and 132 % of control; (dose: 300.0 mg/kg/injection, schedule: Q04DX003 (ip), vehicle: saline) 130 % of control. Further, the T/C is 112 % of control under setting [3]; 177 % of control [5 of 6 alive] (dose: 400.0 mg/kg/injection, schedule: Q01DX009 (ip), vehicle: saline); 139 % of control (dose: 400.0 mg/kg/injection, schedule: Q04DX003 (ip), vehicle: saline).

As for `CCOP(=O)(NC=S)NC(=S)N1CC1` (stereo not drawn), the T/C reads like this: (dose: 100.0 mg/kg/injection, schedule: Q01DX001 (ip), vehicle: carboxymethylcellulose (CMC)) 91 % of control; (dose: 200.0 mg/kg/injection, schedule: Q01DX001 (ip), vehicle: carboxymethylcellulose (CMC)) 96 % of control. Under “dose: 400.0 mg/kg/injection, schedule: Q01DX001 (ip), vehicle: carboxymethylcellulose (CMC)”, the survivor count is recorded as 1 of 6.

As for `CCP1(=O)Nc2ccccc2S1` (stereo not drawn), the T/C (dose: 75.0 mg/kg/injection, schedule: Q01DX001 (ip), vehicle: saline) was 101 % of control [survivor count not shown] and the T/C (dose: 150.0 mg/kg/injection, schedule: Q01DX001 (ip), vehicle: saline) is 100 % of control [survivor count not shown].

With `CN(C)C(=O)Cc1ccc(N(CCCl)CCCl)cc1`, the T/C was 103 % of control (dose: 4.0 mg/kg/injection, schedule: Q12HX018 (ip), vehicle: other); 111 % of control (dose: 6.0 mg/kg/injection, schedule: Q12HX018 (ip), vehicle: other); 114 % of control (dose: 8.0 mg/kg/injection, schedule: Q12HX018 (ip), vehicle: other).

As to `CN(Nc1c([N+](=O)[O-])cc([N+](=O)[O-])cc1[N+](=O)[O-])c1ccccc1`, the T/C runs as follows: (dose: 100.0 mg/kg/injection, schedule: Q01DX009 (ip), vehicle: Klucel (hydroxypropylcellulose) (HPC)) 113 % of control [survivor count not shown]; under setting [4], 102 % of control [survivor count not shown]; (dose: 200.0 mg/kg/injection, schedule: Q01DX009 (ip), vehicle: Klucel (hydroxypropylcellulose) (HPC)) 98 % of control [survivor count not shown]; (dose: 200.0 mg/kg/injection, schedule: Q04DX003 (ip), vehicle: Klucel (hydroxypropylcellulose) (HPC)) 96 % of control [survivor count not shown]; (dose: 400.0 mg/kg/injection, schedule: Q01DX009 (ip), vehicle: Klucel (hydroxypropylcellulose) (HPC)) 112 % of control [survivor count not shown]; under setting [5], 94 % of control [survivor count not shown].

Turning to `NC1CCCCC1.O=P(O)(Nc1ccccc1)N(CCCl)CCCl`, the T/C is 90 % of control (dose: 10.0 mg/kg/injection, schedule: Q01DX Z (ip), vehicle: saline); 95 % of control (dose: 20.0 mg/kg/injection, schedule: Q01DX Z (ip), vehicle: saline); 88 % of control (dose: 40.0 mg/kg/injection, schedule: Q01DX Z (ip), vehicle: saline); 90 and 98 % of control (dose: 80.0 mg/kg/injection, schedule: Q01DX Z (ip), vehicle: saline); 105 % of control (dose: 160.0 mg/kg/injection, schedule: Q01DX Z (ip), vehicle: saline); 108 % of control (dose: 320.0 mg/kg/injection, schedule: Q01DX Z (ip), vehicle: saline).
